Data reported in PMC5456377, “Megalin dependent urinary cystatin C excretion in ischemic kidney injury in rats” (PLoS ONE, 2017).
These are yes or no findings as the source states them, for the method shown. Some binding calls cover weakened binding; strength is not graded here. Each block holds one molecule with its values, some of them ahead of it.

Protein sequences, listed by entry. Tags and fused reporters are not part of them. Residues count along the entry.
UniProt P98158, residues 26-4660: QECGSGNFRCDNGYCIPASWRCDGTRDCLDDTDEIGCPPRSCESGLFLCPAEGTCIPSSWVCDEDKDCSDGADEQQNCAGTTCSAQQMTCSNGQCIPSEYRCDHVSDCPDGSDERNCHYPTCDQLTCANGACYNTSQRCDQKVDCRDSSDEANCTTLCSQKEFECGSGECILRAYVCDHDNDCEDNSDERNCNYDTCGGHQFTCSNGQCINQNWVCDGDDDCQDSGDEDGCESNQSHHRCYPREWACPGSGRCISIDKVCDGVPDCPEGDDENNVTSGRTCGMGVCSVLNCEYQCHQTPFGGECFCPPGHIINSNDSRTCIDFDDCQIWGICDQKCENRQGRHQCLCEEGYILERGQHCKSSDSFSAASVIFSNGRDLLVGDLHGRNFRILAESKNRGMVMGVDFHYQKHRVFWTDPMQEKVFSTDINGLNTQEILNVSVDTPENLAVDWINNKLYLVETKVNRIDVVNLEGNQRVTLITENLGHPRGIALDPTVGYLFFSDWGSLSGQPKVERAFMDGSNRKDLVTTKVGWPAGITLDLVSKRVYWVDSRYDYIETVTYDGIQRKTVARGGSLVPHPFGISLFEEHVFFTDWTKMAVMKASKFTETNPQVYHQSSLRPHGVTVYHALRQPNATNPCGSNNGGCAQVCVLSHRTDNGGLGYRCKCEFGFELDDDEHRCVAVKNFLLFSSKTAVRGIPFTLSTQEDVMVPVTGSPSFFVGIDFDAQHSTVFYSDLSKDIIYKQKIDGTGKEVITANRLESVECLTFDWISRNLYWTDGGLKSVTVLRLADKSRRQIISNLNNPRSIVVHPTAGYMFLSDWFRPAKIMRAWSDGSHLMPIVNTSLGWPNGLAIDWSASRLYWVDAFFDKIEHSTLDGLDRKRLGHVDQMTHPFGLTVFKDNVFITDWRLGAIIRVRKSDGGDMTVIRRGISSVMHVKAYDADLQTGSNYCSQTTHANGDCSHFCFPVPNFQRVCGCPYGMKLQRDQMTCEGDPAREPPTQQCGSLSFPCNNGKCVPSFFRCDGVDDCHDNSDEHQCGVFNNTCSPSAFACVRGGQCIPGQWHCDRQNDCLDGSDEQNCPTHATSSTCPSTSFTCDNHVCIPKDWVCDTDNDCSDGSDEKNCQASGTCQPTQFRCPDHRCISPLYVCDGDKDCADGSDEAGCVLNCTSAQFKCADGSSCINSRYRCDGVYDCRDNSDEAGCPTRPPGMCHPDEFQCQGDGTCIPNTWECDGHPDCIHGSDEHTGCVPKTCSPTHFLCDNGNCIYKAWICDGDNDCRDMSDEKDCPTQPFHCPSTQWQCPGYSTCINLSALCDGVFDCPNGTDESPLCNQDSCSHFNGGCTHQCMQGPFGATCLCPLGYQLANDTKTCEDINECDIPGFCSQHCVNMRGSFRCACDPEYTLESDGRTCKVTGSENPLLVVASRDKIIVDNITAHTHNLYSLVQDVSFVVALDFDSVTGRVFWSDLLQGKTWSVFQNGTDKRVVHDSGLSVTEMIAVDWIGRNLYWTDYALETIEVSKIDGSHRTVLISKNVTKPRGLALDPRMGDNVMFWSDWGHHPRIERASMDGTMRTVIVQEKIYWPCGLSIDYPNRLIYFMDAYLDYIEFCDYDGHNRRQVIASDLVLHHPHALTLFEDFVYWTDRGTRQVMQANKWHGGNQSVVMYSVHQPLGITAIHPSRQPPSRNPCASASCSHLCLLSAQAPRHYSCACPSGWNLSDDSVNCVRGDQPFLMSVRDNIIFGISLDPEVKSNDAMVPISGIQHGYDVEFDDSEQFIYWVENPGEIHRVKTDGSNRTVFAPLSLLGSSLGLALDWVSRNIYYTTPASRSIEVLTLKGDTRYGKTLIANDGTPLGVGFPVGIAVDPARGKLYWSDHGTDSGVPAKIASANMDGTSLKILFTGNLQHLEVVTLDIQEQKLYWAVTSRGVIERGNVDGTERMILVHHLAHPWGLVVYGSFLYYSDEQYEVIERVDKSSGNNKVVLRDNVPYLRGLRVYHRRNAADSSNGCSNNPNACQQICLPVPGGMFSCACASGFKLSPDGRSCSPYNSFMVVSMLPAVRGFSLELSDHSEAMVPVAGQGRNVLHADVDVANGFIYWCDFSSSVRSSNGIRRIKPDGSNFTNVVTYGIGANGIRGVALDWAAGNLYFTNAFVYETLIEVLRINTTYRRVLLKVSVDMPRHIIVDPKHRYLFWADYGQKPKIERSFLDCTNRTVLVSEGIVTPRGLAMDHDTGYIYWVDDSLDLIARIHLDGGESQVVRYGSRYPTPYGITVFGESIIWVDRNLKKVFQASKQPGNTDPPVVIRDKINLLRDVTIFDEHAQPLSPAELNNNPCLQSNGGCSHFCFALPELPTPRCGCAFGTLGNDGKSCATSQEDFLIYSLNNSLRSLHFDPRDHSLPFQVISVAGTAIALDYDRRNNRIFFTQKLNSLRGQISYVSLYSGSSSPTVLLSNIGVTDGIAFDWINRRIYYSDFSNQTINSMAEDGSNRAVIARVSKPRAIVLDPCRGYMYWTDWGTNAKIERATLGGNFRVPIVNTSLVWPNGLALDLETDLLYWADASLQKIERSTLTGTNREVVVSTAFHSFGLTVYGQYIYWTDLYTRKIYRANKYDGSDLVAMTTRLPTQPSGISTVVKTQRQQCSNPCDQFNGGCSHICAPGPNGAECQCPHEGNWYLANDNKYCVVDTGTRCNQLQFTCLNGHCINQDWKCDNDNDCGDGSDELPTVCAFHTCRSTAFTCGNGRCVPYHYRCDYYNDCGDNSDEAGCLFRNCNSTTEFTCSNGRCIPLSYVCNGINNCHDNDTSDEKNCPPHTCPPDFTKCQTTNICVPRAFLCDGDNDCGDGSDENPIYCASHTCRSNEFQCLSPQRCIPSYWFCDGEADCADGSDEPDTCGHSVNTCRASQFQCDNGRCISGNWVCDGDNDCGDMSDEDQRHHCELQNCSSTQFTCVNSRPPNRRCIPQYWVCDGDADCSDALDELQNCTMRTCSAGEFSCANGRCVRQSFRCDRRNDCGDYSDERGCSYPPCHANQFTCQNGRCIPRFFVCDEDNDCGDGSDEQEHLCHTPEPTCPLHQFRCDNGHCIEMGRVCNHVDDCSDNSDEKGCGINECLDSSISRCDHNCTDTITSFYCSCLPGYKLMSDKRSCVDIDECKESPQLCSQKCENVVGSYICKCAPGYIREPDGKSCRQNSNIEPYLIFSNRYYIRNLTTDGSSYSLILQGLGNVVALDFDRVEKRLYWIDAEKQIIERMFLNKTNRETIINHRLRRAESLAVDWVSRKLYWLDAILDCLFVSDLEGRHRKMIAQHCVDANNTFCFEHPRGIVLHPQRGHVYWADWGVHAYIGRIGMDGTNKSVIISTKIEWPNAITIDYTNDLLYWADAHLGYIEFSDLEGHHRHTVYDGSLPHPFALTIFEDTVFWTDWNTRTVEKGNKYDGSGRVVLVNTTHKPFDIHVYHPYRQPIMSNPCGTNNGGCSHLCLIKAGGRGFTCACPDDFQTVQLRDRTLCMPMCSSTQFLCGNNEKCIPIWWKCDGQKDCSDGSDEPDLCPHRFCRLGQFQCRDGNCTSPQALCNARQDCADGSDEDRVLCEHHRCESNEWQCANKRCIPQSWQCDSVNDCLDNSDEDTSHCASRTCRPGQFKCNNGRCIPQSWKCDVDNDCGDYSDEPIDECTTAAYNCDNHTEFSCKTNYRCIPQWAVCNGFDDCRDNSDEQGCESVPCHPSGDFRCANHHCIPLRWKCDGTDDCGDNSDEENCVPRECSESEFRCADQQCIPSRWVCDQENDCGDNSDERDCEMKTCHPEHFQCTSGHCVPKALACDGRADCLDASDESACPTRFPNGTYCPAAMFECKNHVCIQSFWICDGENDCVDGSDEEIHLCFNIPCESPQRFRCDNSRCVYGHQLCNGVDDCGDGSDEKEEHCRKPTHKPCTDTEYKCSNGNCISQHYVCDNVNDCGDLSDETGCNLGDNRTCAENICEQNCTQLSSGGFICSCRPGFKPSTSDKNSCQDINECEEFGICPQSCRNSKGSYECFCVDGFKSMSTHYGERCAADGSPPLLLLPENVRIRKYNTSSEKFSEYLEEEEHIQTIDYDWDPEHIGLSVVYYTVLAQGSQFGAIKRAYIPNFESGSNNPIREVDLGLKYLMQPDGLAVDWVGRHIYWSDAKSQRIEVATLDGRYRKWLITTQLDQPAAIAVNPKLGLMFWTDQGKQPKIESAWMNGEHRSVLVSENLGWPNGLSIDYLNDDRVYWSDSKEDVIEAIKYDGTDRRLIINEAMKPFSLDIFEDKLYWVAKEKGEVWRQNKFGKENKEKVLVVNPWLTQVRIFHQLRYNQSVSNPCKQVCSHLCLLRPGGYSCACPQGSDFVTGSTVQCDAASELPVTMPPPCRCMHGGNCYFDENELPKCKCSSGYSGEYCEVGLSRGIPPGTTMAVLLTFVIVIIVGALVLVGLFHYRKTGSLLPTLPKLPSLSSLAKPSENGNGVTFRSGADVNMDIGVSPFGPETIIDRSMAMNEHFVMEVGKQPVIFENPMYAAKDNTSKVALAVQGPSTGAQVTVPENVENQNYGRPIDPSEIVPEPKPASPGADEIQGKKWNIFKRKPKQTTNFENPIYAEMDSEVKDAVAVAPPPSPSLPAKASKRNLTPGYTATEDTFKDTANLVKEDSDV
UniProt P30533, residues 35-357: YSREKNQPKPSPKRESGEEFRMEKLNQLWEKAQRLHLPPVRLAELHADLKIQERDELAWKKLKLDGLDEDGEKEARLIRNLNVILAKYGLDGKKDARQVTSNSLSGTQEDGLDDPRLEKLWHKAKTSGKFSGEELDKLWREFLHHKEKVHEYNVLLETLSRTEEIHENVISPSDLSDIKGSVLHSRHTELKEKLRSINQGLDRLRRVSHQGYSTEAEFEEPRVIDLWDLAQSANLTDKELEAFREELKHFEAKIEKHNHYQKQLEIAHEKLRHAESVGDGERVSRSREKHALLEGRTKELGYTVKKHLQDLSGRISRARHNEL

Tests used:
rat cubilin [1] = target: T1, rat cubilin (rat, UniProt O70244 33-3623); experiment: SPR; rat megalin or cubilin immobilised; chip pre-saturated with RAP (5 uM), then cysC 150 nM flowed; CaHBS running buffer; both purified
T1 construct: cubilin, rat, purified and immobilised on the SPR chip; probably the native receptor purified from rat kidney (surmised)

rat megalin [2] = target: T2, rat megalin (rat, UniProt P98158 26-4660); experiment: as above
T2 construct: megalin, rat, purified and immobilised on the SPR chip; probably the native receptor purified from rat kidney (surmised)

rat cubilin [3] = target: T1, rat cubilin; experiment: as above; remark: listed apart in the source
rat megalin [4] = target: T2, rat megalin; experiment: as above; remark: listed apart in the source
rat cubilin [5] = target: T1, rat cubilin; experiment: SPR; data not shown; rat megalin or cubilin immobilised; 20 mM EDTA added to the running buffer, cysC at 150 and 300 nM; both purified
rat megalin [6] = target: T2, rat megalin; experiment: as above

binding (rat cubilin [1]): binds
binding (rat megalin [2]): binds
Molecule: receptor associated protein (RAP) (from UniProt P30533 35-357)

binding (rat cubilin [3]): binds
binding (rat megalin [4]): binds
binding (rat cubilin [5]): binds
binding (rat megalin [6]): binds
B1: human cystatin C (natural protein, UniProt P01034 27-146, looked up)
chain: SSPGKPPRLVGGPMDASVEEEGVRRALDFAVGEYNKASNDMYHSRALQVVRARKQIVAGVNYFLDVELGRTTCTKTQPNLDNCPFHDQPHLKRKAFCSFQIYAVPWQGTMTLSKSTCQDA
notes: also called cysC
